According to patent publication US20250295655A1, “BRUTON'S KINASE INHIBITORS FOR THE TREATMENT OF A SUDDEN ALLERGIC REACTION” (ALK-ABELLÓ A/S, priority 2022, published 2025):
Entries after “also recorded” stand apart in the source; their conditions may differ. At least one compound was matched to its structure with a doubt left.

Tests used:
[1] = system: FcεR1 transgenic mice; assay: Passive systemic anaphylaxis model, human anti-Der p 2 IgE sensitised mice challenged with rDer p 2, core body temperature; format: in vivo, mouse
[2] = system: C57BL/6 mice; assay: Active sensitisation anaphylaxis model, peanut sensitised and challenged mice, core body temperature; format: in vivo, mouse
[3] = system: basophils; assay: Basophil activation (CD63 FACS) after allergen stimulation, BTKi added before or after; format: cell-based, human; conditions: BTKi 1000 or 5000 nM added before or 1, 5, 15, 30 min after allergen stimulation; vs water control
Protocol: PBMCs were isolated from heparinized blood using Leucoseptubes (Greiner 227390) with Lymfoprep (Fresenius Kabi 1114547). Following isolation, the cells were washed and resuspended in RPMI 0.5% HSA (RPMI 1640 Gibco 72400-021, HSA Sigma A8763) to 0.25× original blood volume. 2 ng/ml of cytokine IL-3 (RD Peprotec cat nr 200-03) was added to the cells for Basophil priming with final 1 ng/ml. 50 μl of the cell suspension was used for each test, corresponding to 200 μl blood.
The test can be carried out with any BTKi. In the present example, the following BTKis were tested: • Acalabrutinib (Cat A-7337, 100 mM in DMSO) was diluted in RPMI 0.5% HSA to a concentration of 10,000 and 2,000 nM. • Ibrutinib was diluted in RPMI 0.5% HSA to a concentration of 20.000, 5.000 and 1.000 nM. • Branebrutinib was diluted in RPMI 0.5% HSA to a concentration of 20.000 and 5.000 nM. • Remibrutinib was diluted in RPMI 0.5% HSA to a concentration of 20.000 and 5.000 nM. • Pirtobrutinib was diluted in RPMI 0.5% HSA to a concentration of 20.000 and 5.000 nM.
Allergens: Grass pollen extract of the species Phleum pratense (ALK) was diluted in RPMI 0.5%-HSA to five concentrations of 100, 10, 1.0, 0.1 and 0.01 ng/ml. […]
The experiment was performed in 96 deep-well plates. […] Flowcytometer data was analyzed using FlowJo software and statistical data from here used for data analysis.

[4] = system: basophils; assay: Histamine release of allergen-stimulated basophils by ELISA; format: cell-based, human; conditions: BTKi added at 1, 5, 15 min after allergen stimulation; ELISA of supernatants
[5] = system: IgE-mediated anaphylaxis in mice; conditions: two oral doses 16 hours and 4 hours before allergen exposure; cited from earlier work
[6] = system: basophils; assay: Basophil activation after stimulation with non-IgE mediated activators (Con A; a-IgE and Derp ex as controls); format: cell-based, human; conditions: for cell activation after stimulation with non-IgE mediated activators: a-IgE or Derp ex

Compound: CC#CC(=O)N1CCC[C@H]1c1nc(-c2ccc(C(=O)Nc3ccccn3)cc2)c2c(N)nccn12 [Acalabrutinib]
- anaphylaxis severity (core body temperature change, area under the curve) ([1]; all indicated time points, before and after challenge): attenuates anaphylaxis severity
- anaphylaxis severity (core body temperature) ([1]; treatment five minutes after challenge, one experiment): able to attenuate anaphylaxis severity
- anaphylaxis severity (core body temperature change, area under the curve) ([2]; all indicated time points: four hours or five minutes before, five minutes after challenge): attenuates anaphylaxis severity
- anaphylaxis severity (decrease in body temperature) ([2]; intragastric gavage before allergen challenge (four hours or five minutes pre-challenge)): can attenuate anaphylaxis severity significantly
- anaphylaxis severity (decrease in body temperature) ([2]; intragastric gavage five minutes post-challenge): significantly reduced the severity of the anaphylactic reaction; also recorded: able to attenuate anaphylaxis severity
- activation of cells after stimulation with an allergen (percent activation of basophils) [3]: able to decrease the activation of cells
- histamine release [4]: strongly inhibited
- moderate IgE-mediated anaphylaxis [5]: completely prevented
- cell activation after stimulation with non-IgE mediated activators ([6]; acalabrutinib 5 min after stimulation with Con A): inhibited in a dose dependent manner
- cell activation after stimulation with non-IgE mediated activators ([6]; acalabrutinib 30 min before stimulation with Con A): inhibited in a dose dependent manner
- activation after non-IgE mediated (Con A) stimulation of the cells ([6]; administered both before and after stimulation): possible to reduce the Concavalin A induced basophil activation; also recorded: able to decrease the activation in a dose dependent manner
